From US20260138992A1, “LUR[…] FORM AND METHOD FOR PREPARING SAME” (priority 2022, published 2026)
Like-named read-outs stand apart in the source and are kept apart here. Some results were stated once for a whole list of compounds, not compound by compound. For at least one compound, name, drawing or mass did not settle the structure.

Assay type: physicochemical

Row | SMILES | time the crystal form remains stable (at −20° C.) | time the crystal form remains stable (placed at room temperature)
1 | COc1ccc2[nH]c3c(c2c1)CCN[C@]31CS[C@@H]2c3c(OC(C)=O)c(C)c4c(c3[C@H](COC1=O)N1[C@@H]2[C@H]2c3c(cc(C)c(OC)c3O)C[C@@H]([C@@H]1O)N2C)OCO4 [crystal form II, lurbinectedin] | at least 120 days | at least 10 days
2 | COc1ccc2[nH]c3c(c2c1)CCN[C@]31CS[C@@H]2c3c(OC(C)=O)c(C)c4c(c3[C@H](COC1=O)N1[C@@H]2[C@H]2c3c(cc(C)c(OC)c3O)C[C@@H]([C@@H]1O)N2C)OCO4 [crystal form III, lurbinectedin] | at least 120 days | at least 10 days
3 | COc1ccc2[nH]c3c(c2c1)CCN[C@]31CS[C@@H]2c3c(OC(C)=O)c(C)c4c(c3[C@H](COC1=O)N1[C@@H]2[C@H]2c3c(cc(C)c(OC)c3O)C[C@@H]([C@@H]1O)N2C)OCO4 [crystal form IV, lurbinectedin] | at least 120 days | at least 10 days
